According to paper PMC8872419:
These are yes or no findings as the source states them, for the method shown. In cells and extracts the contact can be indirect. Some binding calls cover weakened binding; strength is not graded here.

The chains behind the UniProt entries cited, without tags or fusion partners. Where a name states a change or a piece, a line headed by the entry shows the natural chain unless it says otherwise.
UniProt Q16637: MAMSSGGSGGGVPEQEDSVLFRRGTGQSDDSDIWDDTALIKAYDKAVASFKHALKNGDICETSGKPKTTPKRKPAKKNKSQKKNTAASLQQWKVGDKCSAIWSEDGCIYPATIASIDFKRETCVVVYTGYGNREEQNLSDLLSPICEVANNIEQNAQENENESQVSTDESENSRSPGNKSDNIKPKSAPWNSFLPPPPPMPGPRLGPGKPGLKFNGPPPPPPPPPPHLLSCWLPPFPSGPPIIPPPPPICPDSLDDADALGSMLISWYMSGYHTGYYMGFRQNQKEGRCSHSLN

Legend:
Test in all cases: co-IP; lysate (1 mg) of HeLa cells 24 h after transfection, RIPA buffer without SDS; anti-myc-tag antibody on Dynabeads Protein A; washed three times; blots with anti-myc-tag and anti-SMN antibodies; band ratio End-SMN/Exo-SMN, in triplicate
[1] = molecular target: mutated SMN1 protein with Y276H, myc-tagged (exogenous) (human) (UniProt Q16637)
[2] = molecular target: mutated SMN1 protein with Y277C, myc-tagged (exogenous) (human) (UniProt Q16637)
[3] = molecular target: mutated SMN1 protein with E134K, myc-tagged (exogenous) (human) (UniProt Q16637)

binding [1]: binds
binding [2]: binds
binding [3]: binds
Substance: endogenous FL-SMN1 and/or FL-SMN2 protein (endogenous SMN protein) (from UniProt Q16637 1-294)
